In PMC5554784:
Results are given in words; binding and its absence hold for the method and conditions named. In cells and extracts the contact can be indirect. For some of these results: A result given as binding can be weak or reduced; the word gives no strength.

Legend:
[1] = target: FLAG-Pat1b C-terminal construct (human); test: co-IP; FLAG-tagged proteins in lysates of transfected HEK293 cells on M2 beads, western blotting of bound proteins; in some experiments cells co-transfected with control (beta-globin), SART3 or Lsm1 siRNA
[2] = target: FLAG-Pat1b N-terminal construct (human); test: as above

| Binder | binding [1] | binding [2] |
| --- | --- | --- |
| Lsm1 (protein, UniProt O15116 1-133) MNYMPGTASLIEDIDKKHLVLLRDGRTLIGFLRSIDQFANLVLHQTVERIHVGKKYGDIPRGIFVVRGENVVLLGEIDLEKESDTPLQQVSIEEILEEQRVEQQTKLEAEKLKVQALKDRGLSIPRADTLDEY | binds | – |
| Lsm2 (protein, UniProt Q9Y333 1-95) MLFYSFFKSLVGKDVVVELKNDLSICGTLHSVDQYLNIKLTDISVTDPEKYPHMLSVKNCFIRGSVVRYVQLPADEVDTQLLQDAARKEALQQKQ | binds | – |
| Lsm8 (protein, UniProt O95777 1-96) MTSALENYINRTVAVITSDGRMIVGTLKGFDQTINLILDESHERVFSSSQGVEQVVLGLYIVRGDNVAVIGEIDEETDSALDLGNIRAEPLNSVAH | binds | – |
| SART3 (endogenous) (protein, UniProt Q15020 1-963) MATAAETSASEPEAESKAGPKADGEEDEVKAARTRRKVLSRAVAAATYKTMGPAWDQQEEGVSESDGDEYAMASSAESSPGEYEWEYDEEEEKNQLEIERLEEQLSINVYDYNCHVDLIRLLRLEGELTKVRMARQKMSEIFPLTEELWLEWLHDEISMAQDGLDREHVYDLFEKAVKDYICPNIWLEYGQYSVGGIGQKGGLEKVRSVFERALSSVGLHMTKGLALWEAYREFESAIVEAARLEKVHSLFRRQLAIPLYDMEATFAEYEEWSEDPIPESVIQNYNKALQQLEKYKPYEEALLQAEAPRLAEYQAYIDFEMKIGDPARIQLIFERALVENCLVPDLWIRYSQYLDRQLKVKDLVLSVHNRAIRNCPWTVALWSRYLLAMERHGVDHQVISVTFEKALNAGFIQATDYVEIWQAYLDYLRRRVDFKQDSSKELEELRAAFTRALEYLKQEVEERFNESGDPSCVIMQNWARIEARLCNNMQKARELWDSIMTRGNAKYANMWLEYYNLERAHGDTQHCRKALHRAVQCTSDYPEHVCEVLLTMERTEGSLEDWDIAVQKTETRLARVNEQRMKAAEKEAALVQQEEEKAEQRKRARAEKKALKKKKKIRGPEKRGADEDDEKEWGDDEEEQPSKRRRVENSIPAAGETQNVEVAAGPAGKCAAVDVEPPSKQKEKAASLKRDMPKVLHDSSKDSITVFVSNLPYSMQEPDTKLRPLFEACGEVVQIRPIFSNRGDFRGYCYVEFKEEKSALQALEMDRKSVEGRPMFVSPCVDKSKNPDFKVFRYSTSLEKHKLFISGLPFSCTKEELEEICKAHGTVKDLRLVTNRAGKPKGLAYVEYENESQASQAVMKMDGMTIKENIIKVAISNPPQRKVPEKPETRKAPGGPMLLPQTYGARGKGRTQLSLLPRALQRPSAAAPQAENGPAAAPAVAAPAATEAPKMSNADFAKLFLRK | – | no binding |
